Data: patent publication US6907280B2, “Method and apparatus for objectively measuring pain, pain treatment and other related techniques” (The General Hospital Corporation, priority 1999, dated 2005)
At least one compound was matched to its structure with a doubt left.

Tests used:
[1] = system: reward/aversion circuitry (GOb, NAc); experiment: Cocaine expectancy fMRI (prior to/shortly after infusion, before pharmacological effects); assay type: in vivo, human; settings: prior to and shortly after cocaine infusions, before onset of pharmacological effects
From the text: Also, drug expectancy effects can be observed prior to the infusion of cocaine vs. saline. […] These effects result from probability assessments regarding the potential of receiving a drug reward (i.e. a previously experienced reward).

[2] = system: reward/aversion circuitry (GOb, NAc, SLEA, amygdala, VT); experiment: Double-blind cocaine vs saline infusion fMRI in cocaine addicts (Table II Cocaine (1))
[3] = cocaine addicts, subjective ratings

## COC(=O)[C@H]1[C@@H](OC(=O)c2ccccc2)C[C@@H]2CC[C@H]1N2C [cocaine]
[1]
  NAc activation (drug expectancy effect): NAc activation can be observed
[2]; cocaine addicts after brief abstinence, relative to saline
  fMRI signal change in NAc and SLEA following cocaine: Significant signal change
[2]; [3]
  Correlation of NAc and amygdala activation with subjective reports: correlated with the motivational state of craving
  Correlation of SLEA/BF and VT activation with subjective reports: correlated with the rush
